US9630943B2, “Tetrahydronaphthyl(thio) carboxamides” (BAYER CROPSCIENCE AG, priority 2012, dated 2017)
Some of these results come from one statement about several compounds together.

Key:
Puccinia recondita = assay: In vivo preventive test on Puccinia recondita (brown rust on wheat); details: wheat plants, preventive spray, grading 12 days after contamination
Septoria tritici = assay: In vivo preventive test on Septoria tritici (leaf spot on wheat); details: wheat plants, preventive spray, grading 24 days after contamination
Procedure: Wheat plants (“Scipion” variety), sown in starter cups on a 50/50 peat soil-pozzolana substrate and grown at 22° C., are treated at the 1-leaf stage (10 cm height) by spraying with the active ingredient prepared as described above. Plants, used as controls, are treated with the mixture of acetone/tween/DMSO/water not containing the active material. After 24 hours, the plants are contaminated by spraying the leaves with an aqueous suspension of cryopreserved Septoria tritici spores (500 000 spores per ml). […] Grading (% of efficacy) is carried out 24 days after the contamination, in comparison with the control plants.

Sphaerotheca fuliginea = assay: In vivo preventive test on Sphaerotheca fuliginea (powdery mildew on cucurbits); details: gherkin plants, preventive spray, grading 12 days after contamination
Procedure: Gherkin plants (“Vert petit de Paris” variety), sown in starter cups on a 50/50 peat soil-pozzolana substrate and grown at 24° C., are treated at the Z11 cotyledon stage by spraying with the active ingredient prepared as described above. Plants, used as controls, are treated with the mixture of acetone/tween/DMSO/water not containing the active material. After 24 hours, the plants are contaminated by spraying the cotyledons with an aqueous suspension of Sphaerotheca fuliginea spores (100 000 spores per ml). The spores are collected from infected plants. […] Grading (% of efficacy) is carried out 12 days after the contamination, in comparison with the control plants.

Uromyces appendiculatus = assay: In vivo preventive test on Uromyces appendiculatus (bean rust); details: bean plants, preventive spray, grading 11 days after contamination
Procedure: Plants, used as controls, are treated with the mixture of acetone/tween/DMSO/water not containing the active material. After 24 hours, the plants are contaminated by spraying the leaves with an aqueous suspension of Uromyces appendiculatus spores (150 000 spores per ml). […] Grading (% of efficacy) is carried out 11 days after the contamination, in comparison with the control plants.

Pyrenophora teres = assay: In vivo preventive test on Pyrenophora teres (net blotch on barley); details: barley plants, preventive spray, dose 500 ppm, grading 14 days after contamination
Procedure: Barley plants (“Plaisant” variety), sown in starter cups on a 50/50 peat soil-pozzolana substrate and grown at 22° C., are treated at the 1-leaf stage (10 cm height) by spraying with the active ingredient prepared as described above. Plants, used as controls, are treated with the mixture of acetone/tween/DMSO/water not containing the active material. After 24 hours, the plants are contaminated by spraying the leaves with an aqueous suspension of Pyrenophorateres spores (12 000 spores per ml). The spores are collected from a 12-day-old culture. […] Grading (% of efficacy) is carried out 14 days after the contamination, in comparison with the control plants.

Alternaria brassicae = assay: In vivo preventive test on Alternaria brassicae (leaf spot on radish); details: radish plants, preventive spray, dose 500 ppm, grading 6 days after contamination
Procedure: Radish plants (“Pernod Clair” variety), sown in starter cups on a 50/50 peat soil-pozzolana substrate and grown at 17° C., are treated at the cotyledon stage by spraying with the active ingredient prepared as described above. Plants, used as controls, are treated with the mixture of acetone/tween/DMSO/water not containing the active material. After 24 hours, the plants are contaminated by spraying the cotyledons with an aqueous suspension of Alternaria brassicae spores (50 000 spores per ml). The spores are collected from a 15-day-old culture. The contaminated radish plants are incubated at 20° C. and at 100% relative humidity. Grading (% of efficacy) is carried out 6 days after the contamination, in comparison with the control plants.

CCCC1CCc2c(NC(=O)c3cn(C)nc3C(F)F)cccc2C1C (mixture of isomers) [Example 95]
biological efficacy (Puccinia recondita; dose 100 ppm): ≥ 90% | biological efficacy (Septoria tritici; dose 100 ppm): ≥ 80% | biological efficacy (Sphaerotheca fuliginea; dose 100 ppm): ≥ 90% | biological efficacy (Uromyces appendiculatus; dose 100 ppm): ≥ 90%

CC1c2cccc(NC(=O)c3cn(C)nc3C(F)F)c2CCC1(C)C (racemic) [Example 22]
biological efficacy (Pyrenophora teres): ≥ 70% | biological efficacy (Puccinia recondita; dose 500 ppm): ≥ 90% | biological efficacy (Septoria tritici; dose 500 ppm): ≥ 90% | biological efficacy (Sphaerotheca fuliginea; dose 500 ppm): ≥ 90% | biological efficacy (Uromyces appendiculatus; dose 500 ppm): ≥ 90%

Cc1nn(C)c(F)c1C(=O)Nc1cccc2c1CCCC2(C)C [Example 2, N-(5,5-dimethyl-5,6,7,8-tetrahydronaphthalen-1-yl)-5-fluoro-1,3-dimethyl-1H-pyrazole-4-carboxamide]
biological efficacy (Septoria tritici; dose 500 ppm): ≥ 70% | biological efficacy (Sphaerotheca fuliginea; dose 500 ppm): ≥ 90% | biological efficacy (Uromyces appendiculatus; dose 500 ppm): ≥ 90%

C=C1c2cccc(NC(=O)c3sc(C)nc3CC)c2CCC1(C)C [Example 8]
biological efficacy (Pyrenophora teres): ≥ 70% | biological efficacy (Puccinia recondita; dose 500 ppm): ≥ 80% | biological efficacy (Uromyces appendiculatus; dose 500 ppm): ≥ 90%

C=C1c2c(cccc2NC(=O)c2cn(C)nc2C(F)F)CCC1(C)C [Example 16, 3-(difluoromethyl)-N-(7,7-dimethyl-8-methylene-5,6,7,8-tetrahydronaphthalen-1-yl)-1-methyl-1H-pyrazole-4-carboxamide]
biological efficacy (Alternaria brassicae): ≥ 80% | biological efficacy (Pyrenophora teres): ≥ 80% | biological efficacy (Puccinia recondita; dose 500 ppm): ≥ 90% | biological efficacy (Sphaerotheca fuliginea; dose 500 ppm): ≥ 90% | biological efficacy (Uromyces appendiculatus; dose 500 ppm): ≥ 90%

Cn1cc(C(=O)Nc2cccc3c2CCCC3)c(C(F)F)n1 [Example 27]
biological efficacy (Puccinia recondita; dose 500 ppm): ≥ 80% | biological efficacy (Septoria tritici; dose 500 ppm): ≥ 80% | biological efficacy (Uromyces appendiculatus; dose 500 ppm): ≥ 90%

Cn1cc(C(=O)Nc2cccc3c2CCCC3)c(C(F)(F)F)n1 [Example 28]
biological efficacy (Uromyces appendiculatus; dose 500 ppm): ≥ 90%

CON=C1CCCc2c(NC(=O)c3nccnc3C(F)(F)F)cccc21 [Example 55]
biological efficacy (Puccinia recondita; dose 500 ppm): ≥ 80%

Cc1nc(C(F)F)c(C(=O)Nc2ccc(F)c3c2CCCC3(C)C)s1 [Example 58]
biological efficacy (Puccinia recondita; dose 500 ppm): ≥ 90% | biological efficacy (Uromyces appendiculatus; dose 500 ppm): ≥ 90%

CCc1nc(C)sc1C(=O)Nc1ccc(F)c2c1CCCC2(C)C [Example 59]
biological efficacy (Puccinia recondita; dose 500 ppm): ≥ 90%

Cn1cc(C(=O)Nc2cccc3c2CCCC3(C)C)c(C(F)F)n1 [Example 60]
biological efficacy (Puccinia recondita; dose 500 ppm): ≥ 90% | biological efficacy (Sphaerotheca fuliginea; dose 500 ppm): ≥ 90% | biological efficacy (Uromyces appendiculatus; dose 500 ppm): ≥ 90%

Cc1nn(C)c(F)c1C(=O)Nc1cccc2c1CCCC2(C)C [Example 61]
biological efficacy (Puccinia recondita; dose 500 ppm): ≥ 90%

Cc1oc(C)c(C(=O)Nc2ccc(F)c3c2CCCC3(C)C)c1C [Example 62]
biological efficacy (Puccinia recondita; dose 500 ppm): ≥ 90% | biological efficacy (Uromyces appendiculatus; dose 500 ppm): ≥ 90%

CC1(C)CCCc2c(NC(=O)c3ccsc3I)ccc(F)c21 [Example 63]
biological efficacy (Puccinia recondita; dose 500 ppm): ≥ 90%

CC1(C)CCc2c(cccc2NC(=O)c2ccoc2C(F)F)C1 [Example 64]
biological efficacy (Puccinia recondita; dose 500 ppm): ≥ 70% | biological efficacy (Sphaerotheca fuliginea; dose 500 ppm): ≥ 80%

Cc1oc(C)c(C(=O)Nc2cccc3c2CCC(C)(C)C3)c1C [Example 65]
biological efficacy (Puccinia recondita; dose 500 ppm): ≥ 70% | biological efficacy (Uromyces appendiculatus; dose 500 ppm): ≥ 90%

CC1(C)CCc2c(cccc2NC(=O)c2ccsc2Br)C1 [Example 66]
biological efficacy (Puccinia recondita; dose 500 ppm): ≥ 80%

CC1(C)CCc2c(cccc2NC(=O)c2nccnc2I)C1 [Example 67]
biological efficacy (Alternaria brassicae): ≥ 80% | biological efficacy (Puccinia recondita; dose 500 ppm): ≥ 70%

CC1(C)CCc2c(cccc2NC(=O)c2nccnc2C(F)(F)F)C1 [Example 68]
biological efficacy (Puccinia recondita; dose 500 ppm): ≥ 90% | biological efficacy (Sphaerotheca fuliginea; dose 500 ppm): ≥ 90% | biological efficacy (Uromyces appendiculatus; dose 500 ppm): ≥ 70%

CON=C1CCCc2c(NC(=O)c3c(C)oc(C)c3C)cccc21 [Example 71]
biological efficacy (Puccinia recondita; dose 500 ppm): ≥ 70%

CCON=C1CCCc2c(NC(=O)c3nccnc3C(F)(F)F)cccc21 [Example 72]
biological efficacy (Alternaria brassicae): ≥ 80% | biological efficacy (Septoria tritici; dose 500 ppm): ≥ 70%

CCON=C1CCCc2c(NC(=O)c3c(C(F)(F)F)nn(C)c3F)cccc21 [Example 73]
biological efficacy (Puccinia recondita; dose 500 ppm): ≥ 70%

CON=C1CCCc2c(NC(=O)c3c(C(F)(F)F)nn(C)c3F)cccc21 [Example 75]
biological efficacy (Puccinia recondita; dose 500 ppm): ≥ 70%

CON=C1CCCc2c(NC(=O)C3=C(C(F)(F)F)OCCS3)cccc21 [Example 76]
biological efficacy (Puccinia recondita; dose 500 ppm): ≥ 70%

CCON=C1CCCc2c(NC(=O)c3sc(C)nc3C(F)F)cccc21 [Example 80]
biological efficacy (Puccinia recondita; dose 500 ppm): ≥ 70%

CCON=C1CCCc2c(NC(=O)c3sc(C)nc3CC)cccc21 [Example 81]
biological efficacy (Puccinia recondita; dose 500 ppm): ≥ 80%

CCc1nc(C)sc1C(=O)Nc1cccc2c1CCC(C)(C)C2 [Example 82]
biological efficacy (Puccinia recondita; dose 500 ppm): ≥ 90% | biological efficacy (Sphaerotheca fuliginea; dose 500 ppm): ≥ 90% | biological efficacy (Uromyces appendiculatus; dose 500 ppm): ≥ 90%

Cn1cc(C(=S)Nc2ccc(F)c3c2CCCC3(C)C)c(C(F)F)n1 [Example 85]
biological efficacy (Puccinia recondita; dose 500 ppm): ≥ 90% | biological efficacy (Sphaerotheca fuliginea; dose 500 ppm): ≥ 90% | biological efficacy (Uromyces appendiculatus; dose 500 ppm): ≥ 70%

Cn1nc(C(F)(F)F)c(C(=O)Nc2cccc3c2CCC(C)(C)C3)c1F [Example 86]
biological efficacy (Alternaria brassicae): ≥ 70% | biological efficacy (Puccinia recondita; dose 500 ppm): ≥ 70%

CC1(C)CCc2c(cccc2NC(=O)c2ccsc2I)C1 [Example 87]
biological efficacy (Puccinia recondita; dose 500 ppm): ≥ 70%

CON=C1CCCc2c(NC(=S)c3nccnc3C(F)(F)F)cccc21 [Example 88]
biological efficacy (Puccinia recondita; dose 500 ppm): ≥ 80% | biological efficacy (Uromyces appendiculatus; dose 500 ppm): ≥ 70%

Cc1nn(C)c(C)c1C(=O)Nc1ccc(F)c2c1CCCC2(C)C [Example 90]
biological efficacy (Puccinia recondita; dose 500 ppm): ≥ 90% | biological efficacy (Septoria tritici; dose 500 ppm): ≥ 70% | biological efficacy (Uromyces appendiculatus; dose 500 ppm): ≥ 90%

CCON=C1CCCc2c(NC(=S)c3nccnc3C(F)(F)F)cccc21 [Example 91]
biological efficacy (Alternaria brassicae): ≥ 80% | biological efficacy (Puccinia recondita; dose 500 ppm): ≥ 80% | biological efficacy (Uromyces appendiculatus; dose 500 ppm): ≥ 70%

CCC1(CC)CCCc2c(NC(=O)c3cn(C)nc3C(F)F)cccc21 [Example 93]
biological efficacy (Puccinia recondita; dose 100 ppm): ≥ 90% | biological efficacy (Septoria tritici; dose 100 ppm): ≥ 80% | biological efficacy (Sphaerotheca fuliginea; dose 100 ppm): ≥ 90% | biological efficacy (Uromyces appendiculatus; dose 100 ppm): ≥ 90%

CCCC1(C)CCCc2c(NC(=O)c3cn(C)nc3C(F)F)cccc21 (centres unmarked) [Example 94]
biological efficacy (Puccinia recondita; dose 100 ppm): ≥ 90% | biological efficacy (Sphaerotheca fuliginea; dose 100 ppm): ≥ 90%

Cc1nc(C(F)F)c(C(=S)Nc2cccc3c2CCC(C)(C)C3)s1 [Example 97, 4-(difluoromethyl)-N-(6,6-dimethyl-5,6,7,8-tetrahydronaphthalen-1-yl)-2-methyl-1,3-thiazole-5-carbothioamide]
biological efficacy (Puccinia recondita; dose 100 ppm): ≥ 80%

CC(C)C1CCCc2c(NC(=O)c3cn(C)nc3C(F)F)cccc21 (centres unmarked) [Example 98]
biological efficacy (Puccinia recondita; dose 100 ppm): ≥ 90% | biological efficacy (Sphaerotheca fuliginea; dose 100 ppm): ≥ 90% | biological efficacy (Uromyces appendiculatus; dose 100 ppm): ≥ 90%

CC(C)C1CCCc2c(NC(=O)c3cn(C)nc3C(F)(F)F)cccc21 (centres unmarked) [Example 99]
biological efficacy (Puccinia recondita; dose 100 ppm): ≥ 80% | biological efficacy (Sphaerotheca fuliginea; dose 100 ppm): ≥ 90% | biological efficacy (Uromyces appendiculatus; dose 100 ppm): ≥ 90%
